The data set is described as follows: general procedure: solution-phase peptide synthesis. The following applies: trifluoroacetic acid salt.

Turning to [Met^5 ]-enkephalin, where the note is “coupling step”, the step yield came out at 95%. In addition, for the setting “whole synthesis, total yield”, the isolated yield turned out to be 60%.

The values above are taken from patent publication US4725645 (dated 1988).
